Assay results reported in the supplement of paper PMC7125110.
± gives the standard error. The uncertainty is large for many entries.

B1: glmS ribozyme (parent)
chain: AUAAAAGCGCCAGAACUACAGAAAUGUAGUUGACGAGGAGGAGGUUUAUCGAAUUUUCGGCGGAUGCCUCCAAA

Variants of: B1
Experiment: kcat; higher = faster cleavage; RNA array
Settings: with glucosamine-6-phosphate
Outline: (§1)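 E. coli RNA polymerase transcribed barcoded ribozyme variants in situ on sequenced MiSeq chips, which were tracked via a hybridised Cy3 probe at 37 °C. Tiles were imaged over ~14 h after glucosamine-6-phosphate (40 μM to 10 mM) in HEPES/KCl/Mg(OAc)2 buffer was flowed in. Normalised per-tile medians were fit to one- or two-exponential decays for kobs, and kcat and KM came from weighted Michaelis–Menten fits.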
In the case of G40C C68U, the kcat is reported as 2.62e-05 ± 1.4e-05 s⁻¹. C34A C50G showed a kcat of 3.35e-05 ± 1.8e-05 s⁻¹. For C50G U57A C58G, the kcat was 9.39e-05 ± 6.3e-05 s⁻¹. Work on U31G G38U A53G C68A C71A yielded a kcat of 4.21e-05 ± 3.9e-05 s⁻¹. For G43U U47A U55C, the kcat was 4.32e-05 ± 2.6e-05 s⁻¹. With C34G G35U the kcat was 2.39e-05 ± 1.4e-05 s⁻¹. Variant A53G G66A has a kcat of 0.0293 ± 0.014 s⁻¹. In the case of C34A C50G C71U, the kcat is reported as 9.44e-05 ± 5e-05 s⁻¹. U56A C70U was tested, and the kcat was 0.0154 ± 0.013 s⁻¹. C50U C70U C71A showed a kcat of 4.37e-05 ± 3.6e-05 s⁻¹. Variant U57G C71U has a kcat of 6.07e-05 ± 3e-05 s⁻¹. In the case of A39U U55C, the kcat is reported as 0.0267 ± 0.014 s⁻¹. For U47G C68U, the kcat was 0.00101 ± 0.00051 s⁻¹. Work on C61G C68G yielded a kcat of 2.26e-05 ± 1.5e-05 s⁻¹. G37U C58G showed a kcat of 1.4e-05 ± 8.9e-06 s⁻¹. U30A A64U showed a kcat of 1.3e-05 ± 1e-05 s⁻¹. A53G U69C gave a kcat of 0.00315 ± 0.0025 s⁻¹. U46G U65G was tested, and the kcat was 0.00226 ± 0.00027 s⁻¹. Work on A48G C67A yielded a kcat of 7.17e-05 ± 2.1e-06 s⁻¹. Work on G35C G40U yielded a kcat of less than 1e-05 s⁻¹. G62A C71G was tested, and the kcat was 1.44e-05 ± 2.8e-06 s⁻¹. Variant C34G U69G has a kcat of 4.85e-05 ± 2.5e-05 s⁻¹. For A53U G66A, the kcat was 0.0162 ± 0.0055 s⁻¹. With U54A C67A the kcat was 0.00303 ± 0.0028 s⁻¹. Variant G66A C70A has a kcat of 0.000648 ± 0.00034 s⁻¹. Variant U49G C68G U69G has a kcat of 3.29e-05 ± 1.9e-05 s⁻¹. A39C U69A gave a kcat of 1.07e-05 ± 6.9e-06 s⁻¹. Variant A53U C68U has a kcat of 0.00696 ± 0.0048 s⁻¹. With U49G U55A the kcat was 0.00113 ± 0.0001 s⁻¹. A42G G66A gave a kcat of 0.0281 ± 0.018 s⁻¹. Variant C34U C50G has a kcat of 8.9e-05 ± 5.4e-05 s⁻¹. In the case of G59U U69C, the kcat is reported as 3.57e-05 ± 2.8e-05 s⁻¹. For G37C U55G, the kcat was 8.65e-05 ± 4.8e-05 s⁻¹. U31A A64G was tested, and the kcat was 0.00695 ± 0.0038 s⁻¹. A52U C70U showed a kcat of 0.00063 ± 0.0001 s⁻¹. G32C C71U was tested, and the kcat was 0.000245 ± 0.00018 s⁻¹. A53G U57C was tested, and the kcat was 0.00102 ± 0.00075 s⁻¹. Work on A53G C68U yielded a kcat of 0.00472 ± 0.0034 s⁻¹. U47A G51U was tested, and the kcat was 1.3e-05 ± 8.1e-06 s⁻¹. With A39U G40C U46C the kcat was 0.000472 ± 0.00031 s⁻¹. Work on G51A C61G yielded a kcat of less than 1e-05 s⁻¹. U45G U47G showed a kcat of 0.00796 ± 0.0073 s⁻¹. In the case of U46G C70U, the kcat is reported as 0.0041 ± 0.0022 s⁻¹. C61G U69C C70G showed a kcat of 5.75e-05 ± 1.9e-05 s⁻¹. Variant G37C A39G has a kcat of 0.000123 ± 9.4e-05 s⁻¹. G37C A39U was tested, and the kcat was 1.36e-05 ± 1e-06 s⁻¹. For A36C A52G G66U C70U, the kcat was 1.1e-05 ± 7e-06 s⁻¹. For G40U U56A, the kcat was 0.00558 ± 0.0041 s⁻¹. For U55A U57G, the kcat was 0.000181 ± 0.0001 s⁻¹. G44C C67U was tested, and the kcat was 0.00192 ± 0.00015 s⁻¹. Variant C50G G59U has a kcat of 4.3e-05 ± 3e-05 s⁻¹. Work on A53U U56G yielded a kcat of 0.00834 ± 0.0061 s⁻¹. U30G G32C gave a kcat of 0.000158 ± 2.5e-05 s⁻¹. In the case of C58G C68A, the kcat is reported as 3.28e-05 ± 2.5e-05 s⁻¹. A42U G43U C50G showed a kcat of 4.35e-05 ± 2.7e-05 s⁻¹. A39G U47C gave a kcat of 0.0217 ± 0.011 s⁻¹. U30C G51A showed a kcat of 1.44e-05 ± 8.5e-06 s⁻¹.

Variants of: B1
Experiment: self-cleavage kobs at 40 uM GlcN6P; higher = faster cleavage; RNA array
Settings: with glucosamine-6-phosphate
Outline: as §1
For C34A C50G, the “self-cleavage kobs at 40 uM GlcN6P” value was 3.09e-05 ± 1.7e-05 s⁻¹. In the case of U31G G38U A53G C68A C71A, the “self-cleavage kobs at 40 uM GlcN6P” value is reported as 4.23e-05 ± 2.4e-05 s⁻¹. C34G U69G was tested, and the “self-cleavage kobs at 40 uM GlcN6P” value was 2.55e-05 ± 1.4e-05 s⁻¹. For U49G U55A, the “self-cleavage kobs at 40 uM GlcN6P” value was 3.56e-05 ± 2.1e-05 s⁻¹. With U45G U47G the “self-cleavage kobs at 40 uM GlcN6P” value was 0.000452 ± 0.00023 s⁻¹. C50G G59U was tested, and the “self-cleavage kobs at 40 uM GlcN6P” value was 2.01e-05 ± 1.4e-05 s⁻¹.

Variants of: B1
Experiment: self-cleavage kobs at 2500 uM GlcN6P; higher = faster cleavage; RNA array
Settings: with glucosamine-6-phosphate
Outline: as §1
For C34A C50G, the “self-cleavage kobs at 2500 uM GlcN6P” value was 2.38e-05 ± 2.1e-05 s⁻¹. With U31G G38U A53G C68A C71A the “self-cleavage kobs at 2500 uM GlcN6P” value was 0.000448 ± 0.00029 s⁻¹. With A48G C67A the “self-cleavage kobs at 2500 uM GlcN6P” value was 1.36e-05 ± 1.3e-05 s⁻¹. For G37C U55G, the “self-cleavage kobs at 2500 uM GlcN6P” value was 1.22e-05 ± 8.8e-06 s⁻¹. In the case of C58G C68A, the “self-cleavage kobs at 2500 uM GlcN6P” value is reported as 2.56e-05 ± 1.9e-05 s⁻¹.

Variants of: B1
Experiment: self-cleavage kobs at 10000 uM GlcN6P; higher = faster cleavage; RNA array
Settings: with glucosamine-6-phosphate
Outline: as §1
For C34A C50G, the “self-cleavage kobs at 10000 uM GlcN6P” value was 1.7e-05 ± 1.4e-05 s⁻¹. U31G G38U A53G C68A C71A was tested, and the “self-cleavage kobs at 10000 uM GlcN6P” value was 2.69e-05 ± 2.1e-05 s⁻¹. For C34G U69G, the “self-cleavage kobs at 10000 uM GlcN6P” value was 1.52e-05 ± 1.3e-05 s⁻¹. C34U C50G was tested, and the “self-cleavage kobs at 10000 uM GlcN6P” value was 0.00034 ± 0.0003 s⁻¹. For G59U U69C, the “self-cleavage kobs at 10000 uM GlcN6P” value was 2.65e-05 ± 1.5e-05 s⁻¹. C50G G59U was tested, and the “self-cleavage kobs at 10000 uM GlcN6P” value was 1.78e-05 ± 1.2e-05 s⁻¹. For A42U G43U C50G, the “self-cleavage kobs at 10000 uM GlcN6P” value was 2.33e-05 ± 2.2e-05 s⁻¹.

Variants of: B1
Experiment: KM; higher = weaker cofactor use; RNA array
Settings: with glucosamine-6-phosphate
Outline: as §1
G43U U47A U55C showed a KM of 13900 ± 14000 µM. Variant A53G G66A has a KM of 2350 ± 1400 µM. Work on A6U C10G yielded a KM of 41.9 ± 39 µM. In the case of A39U U55C, the KM is reported as 3180 ± 1900 µM. In the case of U47G C68U, the KM is reported as 938 ± 860 µM. With U46G U65G the KM was 2130 ± 380 µM. For A48G C67A, the KM was 10700 ± 550 µM. Variant A53U G66A has a KM of 2370 ± 1000 µM. Work on G66A C70A yielded a KM of 565 ± 560 µM. A6C G59A was tested, and the KM was 822 ± 510 µM. With A6C C16U the KM was 13300 ± 5100 µM. Work on A53U C68U yielded a KM of 3820 ± 3400 µM. With U49G U55A the KM was 2740 ± 370 µM. In the case of A42G G66A, the KM is reported as 3360 ± 2600 µM. G37C U55G showed a KM of 13900 ± 13000 µM. For U31A A64G, the KM was 1050 ± 810 µM. A52U C70U was tested, and the KM was 3490 ± 1100 µM. With A6U C67A the KM was 302 ± 250 µM. In the case of U46G C70U, the KM is reported as 829 ± 620 µM. G37C A39U was tested, and the KM was 1230 ± 450 µM. With G40U U56A the KM was 8060 ± 7000 µM. Work on U55A U57G yielded a KM of 13300 ± 12000 µM. G44C C67U gave a KM of 1700 ± 200 µM. With A53U U56G the KM was 1540 ± 1500 µM. U30G G32C showed a KM of 1310 ± 850 µM. A6C A12C U57G was tested, and the KM was 381 ± 260 µM. A39G U47C was tested, and the KM was 2930 ± 1900 µM.

Variants of: B1
Experiment: self-cleavage kobs at 160 uM GlcN6P; higher = faster cleavage; RNA array
Settings: with glucosamine-6-phosphate
Outline: as §1
With C34G G35U the “self-cleavage kobs at 160 uM GlcN6P” value was 3.34e-05 ± 2.6e-05 s⁻¹. In the case of C50U C70U C71A, the “self-cleavage kobs at 160 uM GlcN6P” value is reported as 3.21e-05 ± 2e-05 s⁻¹. For C34G U69G, the “self-cleavage kobs at 160 uM GlcN6P” value was 3.49e-05 ± 2.4e-05 s⁻¹. In the case of A52U C70U, the “self-cleavage kobs at 160 uM GlcN6P” value is reported as 2.11e-05 ± 1.2e-05 s⁻¹. A39G U47C was tested, and the “self-cleavage kobs at 160 uM GlcN6P” value was 0.000634 ± 0.00033 s⁻¹.

Variants of: B1
Experiment: self-cleavage kobs at 640 uM GlcN6P; higher = faster cleavage; RNA array
Settings: with glucosamine-6-phosphate
Outline: as §1
C61G C68G was tested, and the “self-cleavage kobs at 640 uM GlcN6P” value was 2.55e-05 ± 1.4e-05 s⁻¹. For A6C C16U, the “self-cleavage kobs at 640 uM GlcN6P” value was 1.79e-05 ± 1.4e-05 s⁻¹. With G32C C71U the “self-cleavage kobs at 640 uM GlcN6P” value was 3.52e-05 ± 1.9e-05 s⁻¹. With U30G G32C the “self-cleavage kobs at 640 uM GlcN6P” value was 3.68e-05 ± 1.9e-05 s⁻¹. With A42U G43U C50G the “self-cleavage kobs at 640 uM GlcN6P” value was 0.000145 ± 7.3e-05 s⁻¹.
